# From US5925731A (Takeda Chemical Industries, Ltd., priority 1995, dated 1999)
# HELM strings list residues between dots; [ac] is acetyl, [am] amide, other brackets name non-standard units.
# Assay: general procedure: solution-phase peptide synthesis; WSCD.HCl/HOBt; HONB active esters
# Settings: coupling step
row,Substance,step yield [%]
1,hexamethyleniminocarbonyl-Leu-D-Trp(CHO)-D-Nle-D-Asp(Php)-OBzl,98

# Same assay, conditions: late stage modification step
row,Substance,step yield [%]
1,Hexamethyleniminocarbonyl-Nle-D-Trp(COOMe)-D-Nle-D-Asp(Php),36
2,"PEPTIDE1{[HMIC].I.[D-Trp(COOMe)].[D-Nle].[dD]}|CHEM1{[Php]}$PEPTIDE1,CHEM1,5:R3-1:R1$$$V2.0",31
3,"PEPTIDE1{[HMIC].L.[D-Trp(CHO)].[D-Nle].[dD]}|CHEM1{[Php]}$PEPTIDE1,CHEM1,5:R3-1:R1$$$V2.0",25
4,"PEPTIDE1{[HMIC].L.[D-Trp(COOMe)].[D-Nle].D}|CHEM1{[Php]}$PEPTIDE1,CHEM1,5:R3-1:R1$$$V2.0",24
5,"PEPTIDE1{[HMIC].L.[D-Trp(COOMe)].[D-Nle].[dD]}|CHEM1{[2FPhp]}$PEPTIDE1,CHEM1,5:R3-1:R1$$$V2.0",9
6,"PEPTIDE1{[HMIC].L.[D-Trp(COOMe)].[D-Nle].[dD]}|CHEM1{[2MeO-5MePhp]}$PEPTIDE1,CHEM1,5:R3-1:R1$$$V2.0",12
7,"PEPTIDE1{[HMIC].L.[D-Trp(COOMe)].[D-Nle].[dD]}|CHEM1{[2MeOPhp]}$PEPTIDE1,CHEM1,5:R3-1:R1$$$V2.0",23
8,"PEPTIDE1{[HMIC].L.[D-Trp(COOMe)].[D-Nle].[dD]}|CHEM1{[3MeOPhp]}$PEPTIDE1,CHEM1,5:R3-1:R1$$$V2.0",34
9,"PEPTIDE1{[HMIC].L.[D-Trp(COOMe)].[D-Nle].[dD]}|CHEM1{[Php]}$PEPTIDE1,CHEM1,5:R3-1:R1$$$V2.0",21
10,PEPTIDE1{[HMIC].L.[D-Trp(COOMe)].[D-Nle].[dE].[Php]}$$$$V2.0,28
11,hexamethyleniminocarbonyl-Leu-D-Trp(COOMe)-D-Nle-D-Asp (2FPhp)-OBzl,67
12,hexamethyleniminocarbonyl-Leu-D-Trp(COOMe)-D-Nle-D-Asp (3MeOPhp)-OBzl,79
13,hexamethyleniminocarbonyl-Leu-D-Trp(COOMe)-D-Nle-D-Asp(2MeO-5MePhp)-OBzl,70
14,hexamethyleniminocarbonyl-Leu-D-Trp(COOMe)-D-Nle-D-Asp(2MeOPhp)-OBzl,69
15,hexamethyleniminocarbonyl-Leu-D-Trp(COOMe)-D-Nle-D-Asp-OBzl,59
